Source: PMC4224252
No constants are given. Whether binding was seen depends on the method and setting. In cells and extracts the contact can be indirect. Some results given as binding are weak or reduced against the parent protein; the word gives no strength.

Chains of the proteins cited; added tags and fusions are not shown. Residues count along the entry.
UniProt P49134, residues 21-799: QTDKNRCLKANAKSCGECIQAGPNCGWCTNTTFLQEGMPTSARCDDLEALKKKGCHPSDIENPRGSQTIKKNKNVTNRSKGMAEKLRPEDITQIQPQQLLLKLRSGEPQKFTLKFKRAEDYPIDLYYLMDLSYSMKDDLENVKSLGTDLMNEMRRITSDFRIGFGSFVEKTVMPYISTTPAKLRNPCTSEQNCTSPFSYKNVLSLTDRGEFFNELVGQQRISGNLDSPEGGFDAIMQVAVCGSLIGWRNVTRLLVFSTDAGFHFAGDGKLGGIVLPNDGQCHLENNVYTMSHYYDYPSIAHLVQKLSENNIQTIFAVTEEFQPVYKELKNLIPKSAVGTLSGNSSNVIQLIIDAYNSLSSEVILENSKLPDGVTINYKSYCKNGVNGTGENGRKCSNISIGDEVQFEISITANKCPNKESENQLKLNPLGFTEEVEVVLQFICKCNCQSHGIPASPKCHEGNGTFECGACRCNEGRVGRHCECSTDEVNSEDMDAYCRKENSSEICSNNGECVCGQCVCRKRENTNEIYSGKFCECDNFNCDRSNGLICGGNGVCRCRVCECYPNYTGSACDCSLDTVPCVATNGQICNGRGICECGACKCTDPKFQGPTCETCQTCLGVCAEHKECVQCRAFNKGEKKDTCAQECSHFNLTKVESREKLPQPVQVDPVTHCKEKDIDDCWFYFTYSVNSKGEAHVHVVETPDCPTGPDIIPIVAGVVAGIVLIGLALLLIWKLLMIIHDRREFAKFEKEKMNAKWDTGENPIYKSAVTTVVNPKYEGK
UniProt O35346: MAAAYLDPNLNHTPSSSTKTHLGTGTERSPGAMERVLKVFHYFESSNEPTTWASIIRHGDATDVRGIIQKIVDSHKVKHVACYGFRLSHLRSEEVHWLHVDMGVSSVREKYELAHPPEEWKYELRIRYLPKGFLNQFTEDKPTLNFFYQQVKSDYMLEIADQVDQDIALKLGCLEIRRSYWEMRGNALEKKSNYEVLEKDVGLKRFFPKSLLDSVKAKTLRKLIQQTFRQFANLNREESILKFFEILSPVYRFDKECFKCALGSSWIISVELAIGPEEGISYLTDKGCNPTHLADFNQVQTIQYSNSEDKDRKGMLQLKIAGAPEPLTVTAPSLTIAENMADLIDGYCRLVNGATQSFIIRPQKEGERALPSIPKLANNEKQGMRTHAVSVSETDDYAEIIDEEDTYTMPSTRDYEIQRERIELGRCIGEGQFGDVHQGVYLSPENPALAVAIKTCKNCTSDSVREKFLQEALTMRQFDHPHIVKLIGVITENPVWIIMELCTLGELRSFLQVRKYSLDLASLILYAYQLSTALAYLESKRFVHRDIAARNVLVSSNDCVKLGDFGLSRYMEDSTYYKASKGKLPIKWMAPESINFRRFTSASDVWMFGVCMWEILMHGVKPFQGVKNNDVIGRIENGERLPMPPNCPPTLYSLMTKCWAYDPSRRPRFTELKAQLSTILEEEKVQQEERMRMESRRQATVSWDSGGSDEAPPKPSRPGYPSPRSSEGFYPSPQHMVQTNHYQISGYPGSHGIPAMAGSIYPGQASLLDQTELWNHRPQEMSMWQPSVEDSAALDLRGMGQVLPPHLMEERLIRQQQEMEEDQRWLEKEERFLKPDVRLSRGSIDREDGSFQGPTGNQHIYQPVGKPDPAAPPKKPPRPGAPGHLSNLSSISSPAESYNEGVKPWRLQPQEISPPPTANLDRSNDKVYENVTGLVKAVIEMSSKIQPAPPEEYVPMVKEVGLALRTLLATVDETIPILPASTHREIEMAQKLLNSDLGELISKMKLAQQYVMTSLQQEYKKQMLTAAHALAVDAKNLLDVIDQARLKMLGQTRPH

What was measured:
[1] = biological target: Integrin β1 subunit (general subpopulation of β1 integrins) (rat (endogenous in resistance arteries)) (UniProt P49134); test: co-IP; 5 μg integrin antibody (β1 AB1952, β3 AB1932 or α5 aba5b) on 250 μg total RIPA extract of resistance arteries of hypertensive TGR(mRen2)27 rats; agarose IgG/protein A; Western blot with FAK Y397 or Src Y418 antibody
[2] = biological target: T1, Integrin β3 subunit (rat (endogenous in resistance arteries)) (UniProt Q8R2H2); test: as above
T1 sequence: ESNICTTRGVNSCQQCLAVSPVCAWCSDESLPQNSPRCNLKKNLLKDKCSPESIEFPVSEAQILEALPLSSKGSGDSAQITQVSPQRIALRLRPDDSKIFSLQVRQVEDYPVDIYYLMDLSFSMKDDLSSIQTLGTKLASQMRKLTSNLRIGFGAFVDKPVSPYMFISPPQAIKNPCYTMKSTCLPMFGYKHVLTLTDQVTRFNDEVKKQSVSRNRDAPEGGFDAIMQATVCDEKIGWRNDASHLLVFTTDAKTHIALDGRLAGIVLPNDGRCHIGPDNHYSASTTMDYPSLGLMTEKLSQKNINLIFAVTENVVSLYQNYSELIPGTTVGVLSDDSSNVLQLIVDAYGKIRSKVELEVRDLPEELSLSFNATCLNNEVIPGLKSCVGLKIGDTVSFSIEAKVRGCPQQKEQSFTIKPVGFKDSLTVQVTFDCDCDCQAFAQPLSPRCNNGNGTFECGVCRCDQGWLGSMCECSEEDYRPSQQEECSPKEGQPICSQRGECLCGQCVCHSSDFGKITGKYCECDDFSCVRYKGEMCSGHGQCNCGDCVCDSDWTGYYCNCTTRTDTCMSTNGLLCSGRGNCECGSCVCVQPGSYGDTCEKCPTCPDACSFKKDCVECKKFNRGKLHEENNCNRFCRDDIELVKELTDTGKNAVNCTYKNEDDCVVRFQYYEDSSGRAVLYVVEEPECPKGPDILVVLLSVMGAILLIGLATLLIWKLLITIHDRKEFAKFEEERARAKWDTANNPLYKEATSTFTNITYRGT

[3] = biological target: Integrin β1 subunit (general subpopulation of β1 integrins) (rat (endogenous in resistance arteries)) (UniProt P49134); test: co-IP; 5 μg integrin antibody (β1 AB1952, β3 AB1932 or α5 aba5b) on 250 μg total RIPA extract of resistance arteries of 5-week-old cRGDfV-treated TGR(mRen2)27 rats (10 mg/kg twice daily for 5 days); agarose IgG/protein A; Western blot with FAK Y397 or Src Y418 antibody
[4] = biological target: Integrin β1 subunit (general subpopulation of β1 integrins) (rat (endogenous in resistance arteries)) (UniProt P49134); test: condition: only in extracts of arteries of normotensive SD rats; co-IP; 5 μg integrin antibody (β1 AB1952, β3 AB1932 or α5 aba5b) on 250 μg total RIPA extract of resistance arteries of normotensive SD rats; agarose IgG/protein A; Western blot with FAK Y397 or Src Y418 antibody
[5] = biological target: T1, Integrin β3 subunit (rat (endogenous in resistance arteries)); test: condition: only in extracts of arteries of cRGDfV-treated TGR(mRen2)27 rats; co-IP; 5 μg integrin antibody (β1 AB1952, β3 AB1932 or α5 aba5b) on 250 μg total RIPA extract of resistance arteries of 5-week-old cRGDfV-treated TGR(mRen2)27 rats (10 mg/kg twice daily for 5 days); agarose IgG/protein A; Western blot with FAK Y397 or Src Y418 antibody
[6] = biological target: T1, Integrin β3 subunit (rat (endogenous in resistance arteries)); test: co-IP; 5 μg integrin antibody (β1 AB1952, β3 AB1932 or α5 aba5b) on 250 μg total RIPA extract of resistance arteries of normotensive SD rats; agarose IgG/protein A; Western blot with FAK Y397 or Src Y418 antibody

binding [1]: binds
binding [2]: binds
binding [3]: binds
binding [4]: no binding
binding [5]: no binding
binding [6]: binds
Substance: Phosphorylated (p)FAK Y397 (focal adhesion kinase phosphorylated at tyrosine 397) (from UniProt O35346 1-1055) (enzyme)
